# Experimental data taken from the supplement of paper PMC8728848.
# This is one part of the list.
# Columns and labels:
# Experiment in all cases: glycan array binding signal (z-score within array); higher = stronger binding
# Settings in all cases: glycan notation: IUPAC condensed, linker removed
# [1] = biological target: Gal(b1-3)[Fuc(a1-4)]GlcNAc(b1-3)Gal(b1-4)[Fuc(a1-3)]GlcNAc
# Procedure, shortened: (§1)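 From the Consortium for Functional Glycomics database, 3228 arrays were curated, keeping only those whose protein sequence was available. Binding is given as a within-array Z-score averaged across arrays sharing a protein sequence and across linkers. Negative Z-scores can be read as non-binding.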
# [2] = biological target: Gal(b1-3)[Fuc(a1-4)]GlcNAc(b1-6)GalNAc
# Procedure, shortened: as §1
# [3] = biological target: Gal(b1-3)[GlcNAc(b1-6)]GalNAc
# Procedure, shortened: as §1
# [4] = biological target: Gal(b1-3)[Neu5Ac(a2-6)]GalNAc
# Procedure, shortened: as §1
# [5] = biological target: Gal(b1-3)[Neu5Ac(a2-6)]GlcNAc(b1-4)Gal(b1-4)Glc
# Procedure, shortened: as §1
# [6] = biological target: Gal(b1-3)[Neu5Ac(b2-6)]GalNAc
# Procedure, shortened: as §1
# [7] = biological target: Gal(b1-4)Gal
# Procedure, shortened: as §1
# [8] = biological target: Gal(b1-4)GalNAc(a1-3)[Fuc(a1-2)]Gal(b1-4)GlcNAc
# Procedure, shortened: as §1
# [9] = biological target: Gal(b1-4)GalNAc(b1-3)[Fuc(a1-2)]Gal(b1-4)GlcNAc
# Procedure, shortened: as §1
# [10] = biological target: Gal(b1-4)Glc
# Procedure, shortened: as §1
# [11] = biological target: Gal(b1-4)Glc6S
# Procedure, shortened: as §1
# [12] = biological target: Gal(b1-4)GlcNAc
# Procedure, shortened: as §1
# [13] = biological target: Gal(b1-4)GlcNAc(a1-6)Gal(b1-4)GlcNAc
# Procedure, shortened: as §1
# [14] = biological target: Gal(b1-4)GlcNAc(b1-2)Man
# Procedure, shortened: as §1
# [15] = biological target: Gal(b1-4)GlcNAc(b1-2)Man(a1-3)Man(b1-4)GlcNAc(b1-4)GlcNAc
# Procedure, shortened: as §1
# [16] = biological target: Gal(b1-4)GlcNAc(b1-2)Man(a1-3)[Gal(b1-4)GlcNAc(b1-2)Man(a1-6)]Man(b1-4)GlcNAc(b1-4)GlcNAc
# Procedure, shortened: as §1
# [17] = biological target: Gal(b1-4)GlcNAc(b1-2)Man(a1-3)[Gal(b1-4)GlcNAc(b1-2)Man(a1-6)]Man(b1-4)GlcNAc(b1-4)[Fuc(a1-6)]GlcNAc
# Procedure, shortened: as §1
# [18] = biological target: Gal(b1-4)GlcNAc(b1-2)Man(a1-3)[Gal(b1-4)GlcNAc(b1-2)Man(a1-6)][Gal(b1-4)GlcNAc(b1-4)]Man(b1-4)GlcNAc(b1-4)[Fuc(a1-6)]GlcNAc
# Procedure, shortened: as §1
# [19] = biological target: Gal(b1-4)GlcNAc(b1-2)Man(a1-3)[Gal(b1-4)GlcNAc(b1-2)Man(a1-6)][GlcNAc(b1-4)]Man(b1-4)GlcNAc(b1-4)[Fuc(a1-6)]GlcNAc
# Procedure, shortened: as §1
# [20] = biological target: Gal(b1-4)GlcNAc(b1-2)Man(a1-3)[GlcNAc(b1-2)Man(a1-6)]Man(b1-4)GlcNAc(b1-4)GlcNAc
# Procedure, shortened: as §1
# [21] = biological target: Gal(b1-4)GlcNAc(b1-2)Man(a1-3)[GlcNAc(b1-4)][Gal(b1-4)GlcNAc(b1-2)Man(a1-6)]Man(b1-4)GlcNAc(b1-4)GlcNAc
# Procedure, shortened: as §1
# [22] = biological target: Gal(b1-4)GlcNAc(b1-2)Man(a1-3)[Man(a1-6)]Man(b1-4)GlcNAc(b1-4)GlcNAc
# Procedure, shortened: as §1
# [23] = biological target: Gal(b1-4)GlcNAc(b1-2)Man(a1-6)Man(b1-4)GlcNAc(b1-4)GlcNAc
# Procedure, shortened: as §1
# [24] = biological target: Gal(b1-4)GlcNAc(b1-2)Man(a1-6)[GlcNAc(b1-2)Man(a1-3)]Man(b1-4)GlcNAc(b1-4)GlcNAc
# Procedure, shortened: as §1
# [25] = biological target: Gal(b1-4)GlcNAc(b1-2)Man(a1-6)[Man(a1-3)]Man(b1-4)GlcNAc(b1-4)GlcNAc
# Procedure, shortened: as §1
# [26] = biological target: Gal(b1-4)GlcNAc(b1-2)[Gal(b1-4)GlcNAc(b1-4)]Man(a1-3)[Gal(b1-4)GlcNAc(b1-2)Man(a1-6)]Man(b1-4)GlcNAc(b1-4)GlcNAc
# Procedure, shortened: as §1
# [27] = biological target: Gal(b1-4)GlcNAc(b1-2)[Gal(b1-4)GlcNAc(b1-4)]Man(a1-3)[Gal(b1-4)GlcNAc(b1-2)[Gal(b1-4)GlcNAc(b1-6)]Man(a1-6)]Man(b1-4)GlcNAc(b1-4)GlcNAc
# Procedure, shortened: as §1
# [28] = biological target: Gal(b1-4)GlcNAc(b1-2)[Gal(b1-4)GlcNAc(b1-4)]Man(a1-3)[GlcNAc(b1-4)][Gal(b1-4)GlcNAc(b1-2)Man(a1-6)]Man(b1-4)GlcNAc(b1-4)GlcNAc
# Procedure, shortened: as §1
# [29] = biological target: Gal(b1-4)GlcNAc(b1-2)[Gal(b1-4)GlcNAc(b1-4)]Man(a1-3)[GlcNAc(b1-4)][Gal(b1-4)GlcNAc(b1-2)[Gal(b1-4)GlcNAc(b1-6)]Man(a1-6)]Man(b1-4)GlcNAc(b1-4)GlcNAc
# Procedure, shortened: as §1
# [30] = biological target: Gal(b1-4)GlcNAc(b1-2)[Gal(b1-4)GlcNAc(b1-6)]Man(a1-6)[Gal(b1-4)GlcNAc(b1-2)Man(a1-3)]Man(b1-4)GlcNAc(b1-4)GlcNAc
# Procedure, shortened: as §1
# [31] = biological target: Gal(b1-4)GlcNAc(b1-2)[Gal(b1-4)GlcNAc(b1-6)]Man(a1-6)[Gal(b1-4)GlcNAc(b1-2)Man(a1-3)]Man(b1-4)GlcNAc(b1-4)[Fuc(a1-6)]GlcNAc
# Procedure, shortened: as §1
# [32] = biological target: Gal(b1-4)GlcNAc(b1-2)[Gal(b1-4)GlcNAc(b1-6)]Man(a1-6)[GlcNAc(b1-4)][Gal(b1-4)GlcNAc(b1-2)Man(a1-3)]Man(b1-4)GlcNAc(b1-4)GlcNAc
# Procedure, shortened: as §1
# [33] = biological target: Gal(b1-4)GlcNAc(b1-2)[Gal(b1-4)GlcNAc(b1-6)]Man(a1-6)[GlcNAc(b1-4)][Gal(b1-4)GlcNAc(b1-2)[Gal(b1-4)GlcNAc(b1-4)]Man(a1-3)]Man(b1-4)GlcNAc(b1-4)[Fuc(a1-6)]GlcNAc
# Procedure, shortened: as §1
# [34] = biological target: Gal(b1-4)GlcNAc(b1-3)Gal(b1-3)GalNAc
# Procedure, shortened: as §1
# [35] = biological target: Gal(b1-4)GlcNAc(b1-3)Gal(b1-3)GlcNAc
# Procedure, shortened: as §1
# [36] = biological target: Gal(b1-4)GlcNAc(b1-3)Gal(b1-4)Glc
# Procedure, shortened: as §1
# [37] = biological target: Gal(b1-4)GlcNAc(b1-3)Gal(b1-4)GlcNAc
# Procedure, shortened: as §1
# [38] = biological target: Gal(b1-4)GlcNAc(b1-3)Gal(b1-4)GlcNAc(b1-2)Man(a1-3)[Gal(b1-4)GlcNAc(b1-3)Gal(b1-4)GlcNAc(b1-2)Man(a1-6)]Man(b1-4)GlcNAc(b1-4)GlcNAc
# Procedure, shortened: as §1
binder,measurement,setting,value
"RsaA-N-term (Caulobacter crescentus), P35828 (protein) MAYTTAQLVTAYTNANLGKAPDAATTLTLDAYATQTQTGGLSDAAALTNTLKLVNSTTAVAIQTYQFFTGVAPSAAGLDFLVDSTTNTNDLNDAYYSKFAQENRFINFSINLATGAGAGATAFAAAYTGVSYAQTVATAYDKIIGNAVATAAGVDVAAAVAFLSRQANIDYLTAFVRANTPFTAAADIDLAVKAALIGTILNAATVSGIGGYATATAAMINDLSDGALSTDNAAGVNLFTAYPSSGVSGSTLSLTTGTDTLTGTANNDTFVAGEVAGDGSGWSHPQFEKGG",glycan array binding signal (z-score),[1],-1.17
same,glycan array binding signal (z-score),[2],-1.19
same,glycan array binding signal (z-score),[3],-0.825
same,glycan array binding signal (z-score),[4],-0.329
same,glycan array binding signal (z-score),[5],-0.54
same,glycan array binding signal (z-score),[6],0.215
same,glycan array binding signal (z-score),[7],-0.075
same,glycan array binding signal (z-score),[8],-0.122
same,glycan array binding signal (z-score),[9],0.297
same,glycan array binding signal (z-score),[10],-0.545
same,glycan array binding signal (z-score),[11],-0.918
same,glycan array binding signal (z-score),[12],-0.339
same,glycan array binding signal (z-score),[13],1.12
same,glycan array binding signal (z-score),[14],-0.545
same,glycan array binding signal (z-score),[15],1.23
same,glycan array binding signal (z-score),[16],-0.966
same,glycan array binding signal (z-score),[17],-0.269
same,glycan array binding signal (z-score),[18],-0.705
same,glycan array binding signal (z-score),[19],-0.708
same,glycan array binding signal (z-score),[20],-0.671
same,glycan array binding signal (z-score),[21],-1.29
same,glycan array binding signal (z-score),[22],0.423
same,glycan array binding signal (z-score),[23],-0.473
same,glycan array binding signal (z-score),[24],0.415
same,glycan array binding signal (z-score),[25],0.32
same,glycan array binding signal (z-score),[26],0.483
same,glycan array binding signal (z-score),[27],-0.496
same,glycan array binding signal (z-score),[28],1.51
same,glycan array binding signal (z-score),[29],-0.581
same,glycan array binding signal (z-score),[30],-0.57
same,glycan array binding signal (z-score),[31],0.599
same,glycan array binding signal (z-score),[32],-1.22
same,glycan array binding signal (z-score),[33],-0.744
same,glycan array binding signal (z-score),[34],0.424
same,glycan array binding signal (z-score),[35],-1.03
same,glycan array binding signal (z-score),[36],-0.696
same,glycan array binding signal (z-score),[37],-0.079
same,glycan array binding signal (z-score),[38],3.15

# An excerpt from the list above:
binder,measurement,setting,value
"RsaA-N-term (Caulobacter crescentus), P35828 (protein) MAYTTAQLVTAYTNANLGKAPDAATTLTLDAYATQTQTGGLSDAAALTNTLKLVNSTTAVAIQTYQFFTGVAPSAAGLDFLVDSTTNTNDLNDAYYSKFAQENRFINFSINLATGAGAGATAFAAAYTGVSYAQTVATAYDKIIGNAVATAAGVDVAAAVAFLSRQANIDYLTAFVRANTPFTAAADIDLAVKAALIGTILNAATVSGIGGYATATAAMINDLSDGALSTDNAAGVNLFTAYPSSGVSGSTLSLTTGTDTLTGTANNDTFVAGEVAGDGSGWSHPQFEKGG",glycan array binding signal (z-score),[27],-0.496
same,glycan array binding signal (z-score),[28],1.51
same,glycan array binding signal (z-score),[29],-0.581
same,glycan array binding signal (z-score),[30],-0.57
same,glycan array binding signal (z-score),[31],0.599
same,glycan array binding signal (z-score),[32],-1.22
same,glycan array binding signal (z-score),[33],-0.744
same,glycan array binding signal (z-score),[34],0.424
same,glycan array binding signal (z-score),[35],-1.03
same,glycan array binding signal (z-score),[36],-0.696
